Source: the supplement of paper PMC8728848
The list shows a part of the results.

Columns and labels:
Assay in all cases: glycan array binding signal (z-score within array); higher = stronger binding
Settings in all cases: glycan notation: IUPAC condensed, linker removed
[1] = biological target: Man(a1-2)Man(a1-3)[Man(a1-2)Man(a1-6)]Man
In short: (§1)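 Glycan array data came from 3228 arrays in the Consortium for Functional Glycomics database, and only arrays with an available protein sequence were kept. Glycan names were put into IUPAC-condensed notation, and columns mapping to the same glycan were averaged. The binding signal is a within-array Z-score, averaged across arrays of one protein sequence run at different concentrations or buffers and across linkers. A negative Z-score can be read as non-binding.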

[2] = biological target: Man(a1-2)Man(a1-3)[Man(a1-2)Man(a1-6)]Man(a1-6)[Man(a1-2)Man(a1-2)Man(a1-3)]Man
In short: as §1

[3] = biological target: Man(a1-2)Man(a1-3)[Man(a1-2)Man(a1-6)]Man(a1-6)[Man(a1-2)Man(a1-2)Man(a1-3)]Man(b1-4)GlcNAc(b1-4)GlcNAc
In short: as §1

[4] = biological target: Man(a1-2)Man(a1-3)[Man(a1-6)]Man(a1-6)[Man(a1-2)Man(a1-3)]Man(b1-4)GlcNAc(b1-4)GlcNAc
In short: as §1

[5] = biological target: Man(a1-2)Man(a1-6)[Man(a1-3)]Man(a1-6)[Man(a1-2)Man(a1-2)Man(a1-3)]Man
In short: as §1

[6] = biological target: Man(a1-2)Man(a1-6)[Man(a1-3)]Man(a1-6)[Man(a1-2)Man(a1-2)Man(a1-3)]Man(b1-4)GlcNAc(b1-4)GlcNAc
In short: as §1

Man(a1-3)[Man(a1-6)]Man = biological target: Man(a1-3)[Man(a1-6)]Man
In short: as §1

[7] = biological target: Man(a1-3)[Man(a1-6)]Man(a1-6)[Man(a1-2)Man(a1-3)]Man(b1-4)GlcNAc(b1-4)GlcNAc
In short: as §1

[8] = biological target: Man(a1-3)[Man(a1-6)]Man(a1-6)[Man(a1-3)]Man
In short: as §1

[9] = biological target: Man(a1-3)[Man(a1-6)]Man(a1-6)[Man(a1-3)]Man(b1-4)GlcNAc(b1-4)GlcNAc
In short: as §1

[10] = biological target: Man(a1-3)[Man(a1-6)]Man(b1-4)GlcNAc(b1-4)GlcNAc
In short: as §1

[11] = biological target: Man(a1-3)[Man(a1-6)]Man(b1-4)GlcNAc(b1-4)[Fuc(a1-6)]GlcNAc
In short: as §1

Man(a1-6)Man = biological target: Man(a1-6)Man
In short: as §1

Man(b1-4)GlcNAc = biological target: Man(b1-4)GlcNAc
In short: as §1

MurNAc(b1-4)GlcNAc = biological target: MurNAc(b1-4)GlcNAc
In short: as §1

Neu5Ac(a2-3)Gal = biological target: Neu5Ac(a2-3)Gal
In short: as §1

[12] = biological target: Neu5Ac(a2-3)Gal(b1-3)GalNAc
In short: as §1

[13] = biological target: Neu5Ac(a2-3)Gal(b1-3)GalNAc(b1-3)Gal(a1-4)Gal(b1-4)Glc
In short: as §1

[14] = biological target: Neu5Ac(a2-3)Gal(b1-3)GalNAc(b1-4)Gal(b1-4)Glc
In short: as §1

[15] = biological target: Neu5Ac(a2-3)Gal(b1-3)GalNAc(b1-4)[Neu5Ac(a2-3)]Gal(b1-4)Glc
In short: as §1

[16] = biological target: Neu5Ac(a2-3)Gal(b1-3)GalNAc(b1-4)[Neu5Ac(a2-8)Neu5Ac(a2-3)]Gal(b1-4)Glc
In short: as §1

[17] = biological target: Neu5Ac(a2-3)Gal(b1-3)GalNAc6S
In short: as §1

[18] = biological target: Neu5Ac(a2-3)Gal(b1-3)GlcNAc
In short: as §1

[19] = biological target: Neu5Ac(a2-3)Gal(b1-3)GlcNAc(b1-2)Man
In short: as §1

[20] = biological target: Neu5Ac(a2-3)Gal(b1-3)GlcNAc(b1-2)Man(a1-3)[GlcNAc(b1-4)][Neu5Ac(a2-3)Gal(b1-3)GlcNAc(b1-2)Man(a1-6)]Man(b1-4)GlcNAc(b1-4)GlcNAc
In short: as §1

[21] = biological target: Neu5Ac(a2-3)Gal(b1-3)GlcNAc(b1-2)Man(a1-3)[Neu5Ac(a2-3)Gal(b1-3)GlcNAc(b1-2)Man(a1-6)]Man(b1-4)GlcNAc(b1-4)GlcNAc
In short: as §1

[22] = biological target: Neu5Ac(a2-3)Gal(b1-3)GlcNAc(b1-2)[Neu5Ac(a2-3)Gal(b1-3)GlcNAc(b1-4)]Man(a1-6)[Neu5Ac(a2-3)Gal(b1-3)GlcNAc(b1-2)Man(a1-3)]Man(b1-4)GlcNAc(b1-4)GlcNAc
In short: as §1

[23] = biological target: Neu5Ac(a2-3)Gal(b1-3)GlcNAc(b1-3)Gal(b1-3)GlcNAc
In short: as §1

[24] = biological target: Neu5Ac(a2-3)Gal(b1-3)GlcNAc(b1-3)Gal(b1-4)GlcNAc
In short: as §1

[25] = biological target: Neu5Ac(a2-3)Gal(b1-3)GlcNAc(b1-3)GalNAc
In short: as §1

[26] = biological target: Neu5Ac(a2-3)Gal(b1-3)GlcNAc(b1-6)GalNAc
In short: as §1

[27] = biological target: Neu5Ac(a2-3)Gal(b1-3)GlcNAc6S
In short: as §1

[28] = biological target: Neu5Ac(a2-3)Gal(b1-3)[Fuc(a1-4)]GlcNAc
In short: as §1

[29] = biological target: Neu5Ac(a2-3)Gal(b1-3)[Fuc(a1-4)]GlcNAc(b1-3)Gal(b1-3)[Fuc(a1-4)]GlcNAc
In short: as §1

[30] = biological target: Neu5Ac(a2-3)Gal(b1-3)[Fuc(a1-4)]GlcNAc(b1-3)Gal(b1-4)[Fuc(a1-3)]GlcNAc
In short: as §1

[31] = biological target: Neu5Ac(a2-3)Gal(b1-3)[GlcNAc(b1-6)]GalNAc
In short: as §1

[32] = biological target: Neu5Ac(a2-3)Gal(b1-3)[Neu5Ac(a2-6)]GalNAc
In short: as §1

B1: Epa20 (Candida glabrata) (protein)
chain: MGSSHHHHHHSSGLVPRGSHMASSNIPNNYPLGCSNKYSGHLPGLKMELYSYNYVNPRHPDPQNPGKLDQLYDPNLLGTYECFDSSYKDINYPRVGYKSKTLIGRSDGVSGILNFNFVPPWGCMPQKGQLPPAYNFKSNITLSNFTMILFGYFKPKISGNHIFSLHGDDLIYLNFGAGNAFDCCRQESSADNFGNYQAFSLWGINWEKKTLTVYLDMNTYYPIRIFYNNRDYQAIFNFSFKTEFDSSPVIDFQDYFFFLRDIDGGCPGEV
[1]
  glycan array binding signal (z-score): -0.826
[2]
  glycan array binding signal (z-score): -0.604
[3]
  glycan array binding signal (z-score): 1.34
[4]
  glycan array binding signal (z-score): -0.728
[5]
  glycan array binding signal (z-score): -0.894
[6]
  glycan array binding signal (z-score): -0.37
Man(a1-3)[Man(a1-6)]Man
  glycan array binding signal (z-score): 0.009
[7]
  glycan array binding signal (z-score): 0.066
[8]
  glycan array binding signal (z-score): -0.166
[9]
  glycan array binding signal (z-score): -0.394
[10]
  glycan array binding signal (z-score): -0.643
[11]
  glycan array binding signal (z-score): 0.533
Man(a1-6)Man
  glycan array binding signal (z-score): -0.123
Man(b1-4)GlcNAc
  glycan array binding signal (z-score): 0.958
MurNAc(b1-4)GlcNAc
  glycan array binding signal (z-score): -0.005
Neu5Ac(a2-3)Gal
  glycan array binding signal (z-score): -0.831
[12]
  glycan array binding signal (z-score): -0.099
[13]
  glycan array binding signal (z-score): 0.615
[14]
  glycan array binding signal (z-score): -0.428
[15]
  glycan array binding signal (z-score): 0.124
[16]
  glycan array binding signal (z-score): -0.377
[17]
  glycan array binding signal (z-score): -0.466
[18]
  glycan array binding signal (z-score): -0.232
[19]
  glycan array binding signal (z-score): -0.545
[20]
  glycan array binding signal (z-score): -0.021
[21]
  glycan array binding signal (z-score): -0.678
[22]
  glycan array binding signal (z-score): -0.182
[23]
  glycan array binding signal (z-score): -0.76
[24]
  glycan array binding signal (z-score): -0.379
[25]
  glycan array binding signal (z-score): -0.266
[26]
  glycan array binding signal (z-score): 0.465
[27]
  glycan array binding signal (z-score): 0.746
[28]
  glycan array binding signal (z-score): 0.139
[29]
  glycan array binding signal (z-score): 1.1
[30]
  glycan array binding signal (z-score): 0.257
[31]
  glycan array binding signal (z-score): 0.084
[32]
  glycan array binding signal (z-score): 0.014
